{"source": "PubChem BioAssay AID504804 (Drosophila RNAi Screening Center, 2011)", "test": "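dsRNAs that improve Kc cell survival under doxorubicin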 (primary screen)", "system": "Drosophila Kc cells", "reagents": "long dsRNA against Drosophila genes, 0.5 µg dsRNA per well", "timing": "96 h (48 h knock-down, then 48 h drug)", "treatment": "doxorubicin 5 µg/ml for 48 h, added 48 h after dsRNA", "detection": "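Luminescent ATP counts per replicate, not normalised, reflecting viable cells after 48 h dsRNA knock-down followed by 48 h of 5 µg/ml doxorubicin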", "scale": "raw ATP luminescence: higher = more viable cells, protection from doxorubicin", "active means": "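z-score of 2 or more over plate mean in both duplicates, retained only when retests and separate dsRNAs confirm the protection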", "note": "The screen tested about 19,000 reagents; below is a random part of those that have a named target and a result. In the full data, 47 (0.25%) got an active call. 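Signals are raw, not normalised; exact z-scores behind calls not deposited; actives needed confirmation, so some wells reaching 2 SD are inactive.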 Names joined by + are all predicted targets of the reagent."}
{"gene":"CG2519 (GeneID 40666)","DRSC id":"DRSC12312","raw ATP luminescence, replicate 1":56953,"raw ATP luminescence, replicate 2":25180,"Outcome":"inactive"}
{"gene":"TwdlX (GeneID 318094)","DRSC id":"DRSC19151","raw ATP luminescence, replicate 1":1.95e5,"raw ATP luminescence, replicate 2":2.34e5,"Outcome":"inactive"}
{"gene":"CG17780 + CG17781","DRSC id":"DRSC15266","raw ATP luminescence, replicate 1":61850,"raw ATP luminescence, replicate 2":63490,"Outcome":"inactive"}
{"gene":"CG4612 (GeneID 37914)","DRSC id":"DRSC04478","raw ATP luminescence, replicate 1":64387,"raw ATP luminescence, replicate 2":53827,"Outcome":"inactive"}
{"gene":"CG30470 (retired record) (GeneID 246632)","DRSC id":"DRSC05553","raw ATP luminescence, replicate 1":28940,"raw ATP luminescence, replicate 2":29257,"Outcome":"inactive"}
{"gene":"Dpp10 (GeneID 33923)","DRSC id":"DRSC00942","raw ATP luminescence, replicate 1":2.73e5,"raw ATP luminescence, replicate 2":2.67e5,"Outcome":"inactive"}
{"gene":"Dpp10 (GeneID 33923)","DRSC id":"DRSC02139","raw ATP luminescence, replicate 1":31187,"raw ATP luminescence, replicate 2":40503,"Outcome":"inactive"}
{"gene":"Hmgcl (GeneID 33978)","DRSC id":"DRSC02051","raw ATP luminescence, replicate 1":19177,"raw ATP luminescence, replicate 2":27870,"Outcome":"inactive"}
{"gene":"CG11726 (GeneID 39275)","DRSC id":"DRSC09858","raw ATP luminescence, replicate 1":69787,"raw ATP luminescence, replicate 2":57307,"Outcome":"inactive"}
{"gene":"CG13794 (GeneID 34048)","DRSC id":"DRSC02298","raw ATP luminescence, replicate 1":58083,"raw ATP luminescence, replicate 2":72357,"Outcome":"inactive"}
{"gene":"Xpd (GeneID 37414)","DRSC id":"DRSC04666","raw ATP luminescence, replicate 1":65283,"raw ATP luminescence, replicate 2":54173,"Outcome":"inactive"}
{"gene":"Mkk4 (GeneID 41020)","DRSC id":"DRSC16739","raw ATP luminescence, replicate 1":70447,"raw ATP luminescence, replicate 2":59453,"Outcome":"inactive"}
{"gene":"RhoGEF4 (GeneID 38806)","DRSC id":"DRSC11011","raw ATP luminescence, replicate 1":40697,"raw ATP luminescence, replicate 2":44210,"Outcome":"inactive"}
{"gene":"Jon65Aiv (GeneID 38682)","DRSC id":"DRSC10644","raw ATP luminescence, replicate 1":80720,"raw ATP luminescence, replicate 2":70813,"Outcome":"inactive"}
{"gene":"Or69a (GeneID 2768964)","DRSC id":"DRSC11243","raw ATP luminescence, replicate 1":95523,"raw ATP luminescence, replicate 2":83003,"Outcome":"inactive"}
{"gene":"CG16959 (GeneID 39648)","DRSC id":"DRSC10230","SD above plate mean":"at least 2 SD above plate mean","raw ATP luminescence, replicate 1":42413,"raw ATP luminescence, replicate 2":41210,"Outcome":"active"}
{"gene":"CG9555 (GeneID 34223)","DRSC id":"DRSC03264","raw ATP luminescence, replicate 1":42023,"raw ATP luminescence, replicate 2":66327,"Outcome":"inactive"}
{"gene":"ND6 (retired record) (GeneID 192479)","DRSC id":"DRSC21271","raw ATP luminescence, replicate 1":2.42e5,"raw ATP luminescence, replicate 2":2.35e5,"Outcome":"inactive"}
{"gene":"Gyc89Da (GeneID 42001)","DRSC id":"DRSC15008","raw ATP luminescence, replicate 1":93010,"raw ATP luminescence, replicate 2":94340,"Outcome":"inactive"}
{"gene":"CG1663 (GeneID 36012)","DRSC id":"DRSC06613","raw ATP luminescence, replicate 1":54487,"raw ATP luminescence, replicate 2":80517,"Outcome":"inactive"}
{"gene":"EMC8-9 (GeneID 37635)","DRSC id":"DRSC04380","raw ATP luminescence, replicate 1":73593,"raw ATP luminescence, replicate 2":59347,"Outcome":"inactive"}
{"gene":"Archease (GeneID 42551)","DRSC id":"DRSC16025","raw ATP luminescence, replicate 1":47580,"raw ATP luminescence, replicate 2":59660,"Outcome":"inactive"}
{"gene":"CG14671 (GeneID 40671)","DRSC id":"DRSC12257","raw ATP luminescence, replicate 1":68923,"raw ATP luminescence, replicate 2":60860,"Outcome":"inactive"}
{"gene":"CG2604 (GeneID 40623)","DRSC id":"DRSC12313","raw ATP luminescence, replicate 1":57303,"raw ATP luminescence, replicate 2":58623,"Outcome":"inactive"}
{"gene":"CG42366 (GeneID 34319)","DRSC id":"DRSC02760","raw ATP luminescence, replicate 1":25257,"raw ATP luminescence, replicate 2":40567,"Outcome":"inactive"}
{"gene":"sns (GeneID 44097)","DRSC id":"DRSC06423","raw ATP luminescence, replicate 1":24937,"raw ATP luminescence, replicate 2":34067,"Outcome":"inactive"}
{"gene":"sns (GeneID 44097)","DRSC id":"DRSC07687","raw ATP luminescence, replicate 1":59587,"raw ATP luminescence, replicate 2":62763,"Outcome":"inactive"}
{"gene":"sns (GeneID 44097)","DRSC id":"DRSC07688","raw ATP luminescence, replicate 1":1.94e5,"raw ATP luminescence, replicate 2":2.46e5,"Outcome":"inactive"}
{"gene":"sns (GeneID 44097)","DRSC id":"DRSC07689","raw ATP luminescence, replicate 1":38407,"raw ATP luminescence, replicate 2":1.05e5,"Outcome":"inactive"}
{"gene":"sns (GeneID 44097)","DRSC id":"DRSC07691","raw ATP luminescence, replicate 1":46453,"raw ATP luminescence, replicate 2":82740,"Outcome":"inactive"}
{"gene":"sns (GeneID 44097)","DRSC id":"DRSC07692","raw ATP luminescence, replicate 1":28723,"raw ATP luminescence, replicate 2":38017,"Outcome":"inactive"}
